Measurements published in patent US20210156867A1.
These are yes or no findings as the source states them, for the method shown. Some binding calls cover weakened binding; strength is not graded here.

Protein sequences, listed by entry. Tags and fused reporters are not part of them. Residues count along the entry.
UniProt P10415, residues 1-211: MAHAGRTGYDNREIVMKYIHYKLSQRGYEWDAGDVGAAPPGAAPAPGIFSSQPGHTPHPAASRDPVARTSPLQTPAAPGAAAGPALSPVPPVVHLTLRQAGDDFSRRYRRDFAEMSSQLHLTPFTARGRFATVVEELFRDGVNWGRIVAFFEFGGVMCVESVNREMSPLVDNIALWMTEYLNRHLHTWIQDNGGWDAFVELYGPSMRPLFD

Tests used:
[1] = biological target: recombinant human B-cell lymphoma protein 2 alpha His-Tag (Bcl-2) (human) (UniProt P10415); assay: fluorescence of the His-Bcl-2-sensor 5 complex (sensor displacement)
[2] = biological target: recombinant human B-cell lymphoma protein 2 alpha His-Tag (Bcl-2) (human) (UniProt P10415); assay: fluorescence displacement assay: emission of the His-Bcl-2-compound 5 sensor complex (200 nM) after adding 800 nM Bax BH3 peptide
[3] = biological target: recombinant human B-cell lymphoma protein 2 alpha His-Tag (Bcl-2) (human) (UniProt P10415); assay: fluorescence displacement assay: compounds 1-5 (200 nM), then His-Bcl-2 (200 nM), then Bax-BH3 (legend prints 1.6 mM; paragraph 695 prints 1.6 with an image character before M)

Measured: binding

STKKLSECLKRIGDELDSNM (peptide, UniProt Q07812 55-74, looked up) [Bax BH3 peptide (55-74) wild type]
binds: all assays above
